The assay addresses MyD88-ΔDD (human). Nature of the assay: co-IP; HEK293T cells co-transfected with tagged plasmids; IP buffer 1% NP-40, 150 mM NaCl, 10 mM Tris-HCl pH 7.4, 1 mM EDTA; antibody with Protein A/G PLUS Agarose overnight; immunoblot. For orientation: A western blot detects proteins with antibodies after separation by electrophoresis.

These are yes or no findings as the source states them, for the method shown. Binding seen in cells or lysates may run through a third protein. Where a sequence is shown, tags or fusion partners need not be part of it.

B1: Flag-OTUD5 (WT) (enzyme, UniProt Q96G74 1-571)
chain: MTILPKKKPPPPDADPANEPPPPGPMPPAPRRGGGVGVGGGGTGVGGGDRDRDSGVVGARPRASPPPQGPLPGPPGALHRWALAVPPGAVAGPRPQQASPPPCGGPGGPGGGPGDALGAAAAGVGAAGVVVGVGGAVGVGGCCSGPGHSKRRRQAPGVGAVGGGSPEREEVGAGYNSEDEYEAAAARIEAMDPATVEQQEHWFEKALRDKKGFIIKQMKEDGACLFRAVADQVYGDQDMHEVVRKHCMDYLMKNADYFSNYVTEDFTTYINRKRKNNCHGNHIEMQAMAEMYNRPVEVYQYSTGTSAVEPINTFHGIHQNEDEPIRVSYHRNIHYNSVVNPNKATIGVGLGLPSFKPGFAEQSLMKNAIKTSEESWIEQQMLEDKKRATDWEATNEAIEEQVARESYLQWLRDQEKQARQVRGPSQPRKASATCSSATAAASSGLEEWTSRSPRQRSSASSPEHPELHAELGMKPPSPGTVLALAKPPSPCAPGTSSQFSAGADRATSPLVSLYPALECRALIQQMSPSAFGLNDWDDDEILASVLAVSQQEYLDSMKKNKVHRDPPPDKS
Consider B1, for which the binding result was “no binding”.

The record behind these values is article PMC11164869.
